From patent US8853276B2, “Guanidine derivatives in cinnamic series” (Produits Chimiques Auxiliaires et de Synthese, priority 2010, dated 2014)
At least one structure is not confirmed: it was looked up by name or label, or the drawing left a doubt.

System: fibrillin-1
Assay: Anti-glycation study on skin explants: fibrillin-1 immunolabeling with image analysis
Type: cell-based, human
Procedure: The anti-aging properties of a derivative according to the invention were evaluated by performing a comparative study of the anti-glycation activity of several compounds.
From an arm of a person, 21 explants (about 10 mm in diameter) were prepared and placed under survival conditions in BEM specific medium (BIO-EC's Explants Medium).
The explants were divided into seven batches of three explants:
Methylglyoxal was incorporated into the survival medium on D3, D5 and D7.
Compound 29 and the reference, aminoguanidine, were applied topically at a rate of 2 mg per explant on D0, D3, D5 and D7.
The controls (batches T0 and T) received no treatment.
On D0, the three explants of batch T0 were sampled and divided into two. One half was fixed with buffered formaldehyde and the other half was frozen at −80° C. On D9, three explants from each batch were sampled and treated in the same manner.
After 24 hours of fixing in the buffered formaldehyde, the samples were dehydrated and impregnated with paraffin using a Leica 1020 dehydration robot. They were embedded using a Leica EG 1160 coating station. 5 μm slices were produced using a Minot Leica RM 2125 microtome and bonded to Superfrost® histological glass slides.
The nuclei were stained with propidium iodide. The labeling was quantified by image analysis measurements with the Q-WIN Leica system.

COc1cc(/C=C/C(=O)NNC(=N)N)ccc1O [Compound 29, imino{2-[(2E)-3-(4-hydroxy-3-methoxyphenyl)prop-2-enoyl]hydrazino}methanaminium nitrate]
effect on the action of methylglyoxal on fibrillin-1 expression (in words) (D9, treatment in the presence of methylglyoxal): totally inhibits the action of methylglyoxal | expression of fibrillin-1 (labeling, observation) (D9 in the presence of methylglyoxal, compared with control batch T MG): very sharp and greater than that observed on the control batch T MG with methylglyoxal
